These results are taken from PubChem BioAssay AID662 (National Center for Advancing Translational Sciences (NCATS), 2007).

Some of the results follow. These are further read-outs of the screen, such as a control signal, another cell line or another target. No call is given for them. The list favours compounds with an active or inconclusive main result. Potencies come from curve fits of mixed quality, noted in brackets.

This experiment in a line: Cell signaling CRE-BLA (Fsk stim). The note with it: CHO CRE-bla reporter (cAMP response element driving beta-lactamase), forskolin EC10, beta-lactamase ratio; measured here: 460 nm blue channel. The source says: NIH Molecular Libraries Screening Centers Network [MLSCN]
NIH Chemical Genomics Center [NCGC]
Assay Provider: Marshall W. Nirenberg, U.S. National heart lung & blood institute
Memories persist for different lengths of time, from seconds or minutes to a lifetime. There are two kinds of memory: short-term memory (STM) and long-term memory (LTM). STM lasts for minutes to hours, which maybe mediated by modifications of molecules involved in synaptic functions. LTM lasts for days or longer, and may be due to the formation of new synapses or restructuring of existing synapses. LTM, but not STM, requires gene transcription and synthesis of proteins. CREB (cyclic-AMP Responsive Element Binding Protein) is one of the candidates plays an important role for enhancement of some types of LTM. CREB, a family of transcription factors, regulates the transcription of genes containing cAMP Responsive Elements (CRE). CRE is a nucleotide sequence often found in the promoter regions of genes that are binding sites for CREB.
Using a beta-lactamase reporter-gene under control of cAMP responsive element, a cell-based assay [CellSensor(TM) CRE-bla CHO developed by Invitrogen Corp.] was used to measure forskolin-induced signaling. Library compounds were measured for their ability to modulate positively or negatively the action of EC10 NKH 477, a water soluble forskolin, on reporter gene activity. Compounds were screened in a titration series in 1536-well format. Positive and negative modulators were identified based on the AC50 values derived from the screening data.
NCGC Assay Protocol Summary
2000 cells/5uL in Opti-MEM medium containing 0.5% dialyzed FBS, 0.1 mM NEAA, 1 mM sodium pyruvate and 10 mM HEPES was dispensed into 1536-well plates and cells were cultured at 37 degrees Celsius overnight. […] And then the plates were incubated at 37 degrees Celsius for 3 hours. 1 uL of CCF4-dye mixture was added to each well. After incubated at room temperature for 2 hours the plates were measured on an EnVision plate reader at Excitation 405nm, Emission1=460nm and Emission 2=530nm. The %Activity was determined from the ratio of 460nm/530nm.
Keywords: NIH Roadmap, MLSCN, MLSMR, qHTS, NCGC, CRE, beta-lactamase reporter-gene assay.
Consider `Cc1ccc(S(=O)(=O)c2nc(C(C)(C)C)oc2N2CCOCC2)cc1`, for which the AC50 was 12.6 µM [rising, single point]. For `Cc1cc(C(=O)CSc2nn(-c3ccccc3)c(=S)s2)c(C)n1Cc1ccco1` the value was 1 µM [falling, full curve, poor fit].

In the case of `COc1ccc(-c2csc(N3CCOCC3)n2)cc1OC`, the AC50 was 10 µM [rising, partial curve]. For `COc1ccccc1NC(=O)Nc1ccc(Br)cn1` the value was 3.16 µM [falling, full curve]. With `Cc1ccc(C(=O)CSc2nnc(CNc3nc(-c4ccccc4)cs3)n2C)cc1` the figure was 5.01 µM [falling, single point]; with `COc1ccc2[nH]cc(CCNc3ncncc3-c3cccnc3)c2c1`, 12.6 µM [rising, single point]; with `Cc1ccc2cc(CCNS(=O)(=O)c3ccc(F)cc3)c(=O)[nH]c2c1`, 12.6 µM [rising, partial curve]. With `COC(=O)c1[nH]c(=O)c2ccccc2c1OCc1ccccc1`, the concentration at half-maximal activity (AC50) is 0.316 µM [rising, full curve, poor fit]. On to `CCn1nc(C(=O)OCC(=O)c2c[nH]c3ccccc23)c2ccccc2c1=O`, for which the concentration at half-maximal activity (AC50) was 6.31 µM [rising, partial curve]. For `O=C(Cn1cnc2c(nnn2Cc2ccc(F)cc2)c1=O)N1CCCCC1` the value was 0.0794 µM [rising, full curve, poor fit]; for `c1cncc(-c2ccc3ncnc(N4CCNCC4)c3c2)c1`, 10 µM [rising, partial curve]. For `N#CC(C#N)=NNc1ccc2cn[nH]c2c1` the value was 2.51 µM [falling, partial curve]. With `CCOC(=O)c1cnc2c(C#N)c(C)nn2c1-c1ccccc1` the figure was 5.01 µM [rising, partial curve]; with `COc1ccc(-n2c(Cc3cccn3C)nnc2SCC(=O)Nc2cccc(OC)c2)cc1`, 6.31 µM [falling, partial curve]. For the compound `COc1cc(C2=NOC(C(=O)NC3CCCCC3)C2)cc(OC)c1OC` (stereo not drawn), the AC50 was 0.00398 µM [falling, full curve]. Take `N#CCCn1c(=O)c(-c2ccc(Cl)cc2)nc2cnc(Oc3ccccc3)nc21`: the AC50 is 5.01 µM [rising, single point]. Turning to `CCOC(=O)c1c(C)c(C(=O)Nc2cc(F)ccc2F)c(C)n1C`, the AC50 was 10 µM [rising, partial curve]. With `CNc1nc(Nc2ccc(C(C)=O)cc2)nc(OC(C(F)(F)F)C(F)(F)F)n1` the figure was 0.631 µM [rising, full curve]; with `Cn1cccc1C(=O)N1CCC[C@@]2(CCN(Cc3cc(C(F)(F)F)cc(C(F)(F)F)c3)C2)C1`, 20 µM [rising, single point]; with `N#Cc1cccc(-c2nnc(SCc3ccccc3C#N)o2)c1`, 10 µM [rising, partial curve]. In the case of `CCOC(=O)c1cnc(Nc2ccc(OCC)cc2)nc1C`, the concentration at half-maximal activity (AC50) is 5.01 µM [falling, single point].

For `CCCOc1ccc(CSc2nnc(CCC)n2N)cc1`, the half-maximal activity concentration (AC50) is 3.98 µM [falling, partial curve]. Take `COc1ccc(Cc2nnc(NC(=O)Cc3cccs3)s2)cc1OC`: the AC50 was 12.6 µM [rising, partial curve]. With `N#Cc1sc2nc(-c3ccccc3)cc(-c3ccco3)c2c1N` the figure was 25.1 µM [rising, single point]; with `COc1ccccc1-n1c(SCC(=O)Nc2ccccc2C)nc(O)cc1=O`, 1 µM [falling, full curve, poor fit]; with `Cn1c(C(=O)N2CCN(C(=O)c3ccco3)CC2)cc2c(=O)n3ccccc3nc21`, 12.6 µM [rising, partial curve].

As for `COc1ccc(CNc2ncncc2-c2cccc(NS(C)(=O)=O)c2)c(OC)c1`, the half-maximal activity concentration (AC50) was 5.01 µM [rising, full curve]. With `Cc1cc2c(=O)n(CC(=O)N3CCN(c4ccccc4)CC3)cnc2s1` the figure was 0.316 µM [falling, single point]. For the compound `N#Cc1c(NC(=O)CSc2ncc(-c3ccccc3)n2CC2CCCO2)sc2c1CCCC2` (stereo not drawn), the AC50 was 3.16 µM [rising, single point]. For `COc1ncc2nc(C)c(=O)n(CCc3ccccc3)c2n1` the value was 12.6 µM [rising, partial curve]; for `O=C(O)CCCC(=O)N1CCN(c2nc(-c3ccccc3)c3ccccc3n2)CC1`, 10 µM [rising, partial curve]. With `CC1CCCN(C(=O)C2CCN(CCCc3ccccc3)CC2)C1` (stereo not drawn) the figure was 5.01 µM [falling, single point]; with `CC(=NCc1cccnc1)C1=C(O)c2ccccc2C1=O`, 12.6 µM [rising, single point]; with `COc1ccc(CCNC(=O)CC2Oc3ccc(Cl)cc3NC2=O)cc1OC` (stereo not drawn), 10 µM [rising, partial curve]. With `COc1ccc(C2SCCN2S(=O)(=O)c2ccccc2)cc1OC` (stereo not drawn) the figure was 10 µM [rising, partial curve]; with `O=C(Nc1cccc2cccnc12)c1cccnc1`, 10 µM [rising, partial curve]; with `O=c1[nH]c(SCc2cccc(Cl)c2)nc2c1CCCC2`, 7.94 µM [rising, partial curve]. On to `CC(C)n1c(=NC(=O)c2ccco2)c(C#N)cc2c(=O)n3ccccc3cc21`, for which the AC50 is 12.6 µM [rising, partial curve]. For `CC(=O)N1CCc2cc(S(=O)(=O)NC(CC(C)C)C(=O)N3CCc4ccccc4C3)ccc21` (stereo not drawn) the value was 25.1 µM [rising, single point]; for `CCOc1ncccc1C(=O)OCC(=O)c1c(N)n(C)c(=O)n(C)c1=O`, 10 µM [rising, single point].

Regarding `O=S(=O)(c1ccc(OCC(O)CNCc2ccco2)c(Cl)c1)N1CCOCC1` (stereo not drawn), the AC50 is 0.1 µM [falling, partial curve, poor fit]. For `CN1CCN(c2ncc3nc(CCc4ccccc4)c(=O)n(C4CC4)c3n2)CC1` the value was 10 µM [rising, partial curve]; for `CSc1cccc(NC(=O)CN(C2CCCCC2)S(C)(=O)=O)c1`, 7.94 µM [falling, partial curve, poor fit]; for `N#CCCn1c(=O)c(-c2ccc(F)cc2)nc2cnc(Oc3ccccc3)nc21`, 20 µM [rising, partial curve]. With `O=C(OCC(=O)N1CCN(C(=O)c2ccco2)CC1)c1cc(-c2ccccc2)nc2ccccc12` the figure was 6.31 µM [rising, partial curve]; with `CC(C)(C)C(=O)NC(c1ccc(Cl)cc1)[C@]1(C)C[C@H]1C1CCCCC1` (stereo partly drawn), 20 µM [rising, single point].

`O=c1cc(CNC2CCCCC2)c2ccccc2[nH]1`: the AC50 was 3.98 µM [falling, single point].

On to `CC(C)=CCc1c(O)cc(O)c2c1O[C@H](c1ccccc1)CC2=O`, for which the AC50 is 31.6 µM [rising, single point]. Consider `CN1CCN(c2ncc3nc(-c4ccc(F)cc4)c(=O)n(C4CC4)c3n2)CC1`, for which the half-maximal activity concentration (AC50) was 10 µM [rising, partial curve]. For `COc1ccccc1N1CCN(C(=O)c2cc(-c3ccc(C)cc3)on2)CC1` the value was 15.8 µM [falling, partial curve]; for `CN(C(=O)c1cc2n(n1)C(C(F)(F)F)CC(c1ccco1)N2)c1ccc(OC(F)(F)F)cc1` (stereo not drawn), 25.1 µM [falling, single point]; for `CN(C)c1ccc(/C(=N\O)C(F)(F)F)cc1`, 0.00316 µM [falling, full curve, poor fit]. For `Cc1cc(C)c(C#N)c(SCC(=O)Nc2nnc(-c3ccccc3)s2)n1` the value was 0.398 µM [rising, full curve].

Turning to `CCOC(=O)c1nc(S(C)(=O)=O)ncc1Cl`, the AC50 was 12.6 µM [falling, partial curve]. For the compound `CCn1c(=O)cc(SCC(=O)Nc2cccnc2)c2ccccc21`, the AC50 was 10 µM [rising, partial curve]. For `O=C(C1CCC1)N1CCc2cc(S(=O)(=O)N3CCCCC3)ccc21`, the AC50 was 6.31 µM [rising, partial curve].

As to `COc1ccc2cc3cc(C(=O)NCCCN4CCOCC4)oc3nc2c1`, the AC50 was 25.1 µM [falling, single point]. Consider `O=C1NCCCc2c1oc1ccc(O)cc21`, for which the AC50 is 3.98 µM [falling, full curve].

Regarding `CCOC(=O)N1CCN(Cc2cccs2)CC1`, the AC50 was 0.631 µM [falling, full curve, poor fit].

On to `CCOC(=O)C1=C(C)N=c2s/c(=C\c3ccncc3)c(=O)n2C1c1ccc2c(c1)OCO2` (stereo not drawn), for which the AC50 was 1 µM [falling, partial curve, poor fit]. For `COc1ccc(OC)c(-c2cc(C(=O)Nc3c(C)nn(Cc4ccccc4Cl)c3C)no2)c1` the value was 1.26 µM [rising, partial curve]. With `CCOC(=O)c1c(C)oc2c(F)c(F)c(F)c(F)c2c1=O` the figure was 2.51 µM [falling, partial curve]; with `CCOC(=O)N1CCC(NC(=O)c2cc3c(-c4ccc(OC)c(OC)c4)nn(C)c3s2)CC1`, 3.98 µM [rising, single point]; with `O=C(N1CCOCC1)N1CCN(c2nc(-c3ccc(F)cc3)cs2)CC1`, 3.98 µM [rising, partial curve]. For `Cc1cc(N)c2ccccc2[n+]1CCCCCCCCCC[n+]1c(C)cc(N)c2ccccc21` the value was 31.6 µM [falling, single point]; for `CC(NO)C(C)(C)NO` (stereo not drawn), 25.1 µM [rising, single point].

Consider `COc1ccc2c(C)nc(Nc3nc(C)cc(=O)[nH]3)nc2c1`, for which the AC50 was 3.98 µM [rising, full curve]. Consider `O=C(CSc1nc2ccccc2c(=O)n1Cc1ccco1)NCc1ccccc1`, for which the AC50 is 25.1 µM [rising, single point].
